# Test results reported in the supplement of paper PMC4604168 (melanoma cell lines).
# This is one part of the list. Repeats are few or missing, and single values can be far off.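 Cells were imaged in 1,536-well plates, and nuclei stained with an antibody against cleaved PARP were counted against all DNA-stained nuclei to give the apoptosis fraction. Screening doses were chosen to leave most cells alive, and resting and induced cleaved-PARP levels differ strongly between cell lines.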
# Tested on: COLO800
# Experiment: cleaved PARP positive nuclei fraction relative to DMSO control; melanoma cells; higher = more apoptosis
# Conditions: library dose: low library concentration; 72 h
row,Compound,cleaved PARP positive nuclei fraction [%]
1,"Nc1ncn([C@H]2C[C@H](O)[C@@H](CO)O2)c(=O)n1 [decitabine] + Cc1cc(N2CCOCC2)cc2[nH]c(-c3c(NC[C@@H](O)c4cccc(Cl)c4)cc[nH]c3=O)nc12 [BMS536924] (first compound 0.1 µM, partner dose 0.2 µM)",78.6
2,"Cn1c(=O)n(-c2ccc(C(C)(C)C#N)cc2)c2c3cc(-c4cnc5ccccc5c4)ccc3ncc21 + NCC(=O)Nc1ccc(-n2nc(C(F)(F)F)cc2-c2ccc3c(ccc4ccccc43)c2)cc1 [OSU03012] (first compound 0.004 µM, partner dose 1 µM)",88.3
3,"CS(=O)(=O)CCNCc1ccc(-c2ccc3ncnc(Nc4ccc(OCc5cccc(F)c5)c(Cl)c4)c3c2)o1 [lapatinib] + O=C(Nc1cccc(Cl)c1)Nc1ncc(CCNc2ncnc3ccsc23)s1 [SNS314] (first compound 0.8 µM, partner dose 0.0008 µM)",61.1
4,"CN1CCN(c2ccc3nc(-c4c(N)c5c(F)cccc5[nH]c4=O)[nH]c3c2)CC1 [Dovitinib] + CN(C)S(=O)(=O)c1ccc2c(c1)/C(=C/c1cc3c([nH]1)CCCC3)C(=O)N2 [SU6656] (first compound 0.1 µM, partner dose 0.4 µM)",107
5,"C[C@@H](Oc1cc(-c2cnn(C3CCNCC3)c2)cnc1N)c1c(Cl)ccc(F)c1Cl [Crizotinib] + Cn1cncc1[C@@](N)(c1ccc(Cl)cc1)c1ccc2c(c1)c(-c1cccc(Cl)c1)cc(=O)n2C [tipifarnib] (first compound 0.2 µM, partner dose 0.01 µM)",98.3
